Test results published in the supplement of paper PMC10849652.
The other results are listed elsewhere or left out.

The chains behind the UniProt entries cited, without tags or fusion partners. Where a name states a change or a piece, a line headed by the entry shows the natural chain unless it says otherwise.
UniProt O95619, whole entry, looked up: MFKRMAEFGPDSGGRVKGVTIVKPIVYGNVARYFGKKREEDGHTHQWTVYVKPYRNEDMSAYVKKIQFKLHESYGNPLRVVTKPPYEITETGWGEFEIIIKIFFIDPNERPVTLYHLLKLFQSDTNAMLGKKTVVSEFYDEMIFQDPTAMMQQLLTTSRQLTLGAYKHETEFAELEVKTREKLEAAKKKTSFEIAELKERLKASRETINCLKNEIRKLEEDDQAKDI
UniProt P63104: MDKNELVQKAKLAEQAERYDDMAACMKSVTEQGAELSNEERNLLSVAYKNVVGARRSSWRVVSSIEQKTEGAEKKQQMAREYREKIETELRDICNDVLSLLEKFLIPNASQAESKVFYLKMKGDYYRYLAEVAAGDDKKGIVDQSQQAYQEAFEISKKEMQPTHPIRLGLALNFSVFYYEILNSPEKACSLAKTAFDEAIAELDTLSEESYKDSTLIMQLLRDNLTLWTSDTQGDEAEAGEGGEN
UniProt A8MPS7: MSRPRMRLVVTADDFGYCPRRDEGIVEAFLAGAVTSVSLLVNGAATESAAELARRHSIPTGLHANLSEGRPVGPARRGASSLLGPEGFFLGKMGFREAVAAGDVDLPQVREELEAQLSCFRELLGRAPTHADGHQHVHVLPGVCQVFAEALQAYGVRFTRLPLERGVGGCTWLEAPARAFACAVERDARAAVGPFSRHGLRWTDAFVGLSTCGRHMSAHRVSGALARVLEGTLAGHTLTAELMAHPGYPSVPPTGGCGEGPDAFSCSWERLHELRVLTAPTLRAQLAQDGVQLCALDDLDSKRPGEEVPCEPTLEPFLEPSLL
UniProt Q7Z3T8: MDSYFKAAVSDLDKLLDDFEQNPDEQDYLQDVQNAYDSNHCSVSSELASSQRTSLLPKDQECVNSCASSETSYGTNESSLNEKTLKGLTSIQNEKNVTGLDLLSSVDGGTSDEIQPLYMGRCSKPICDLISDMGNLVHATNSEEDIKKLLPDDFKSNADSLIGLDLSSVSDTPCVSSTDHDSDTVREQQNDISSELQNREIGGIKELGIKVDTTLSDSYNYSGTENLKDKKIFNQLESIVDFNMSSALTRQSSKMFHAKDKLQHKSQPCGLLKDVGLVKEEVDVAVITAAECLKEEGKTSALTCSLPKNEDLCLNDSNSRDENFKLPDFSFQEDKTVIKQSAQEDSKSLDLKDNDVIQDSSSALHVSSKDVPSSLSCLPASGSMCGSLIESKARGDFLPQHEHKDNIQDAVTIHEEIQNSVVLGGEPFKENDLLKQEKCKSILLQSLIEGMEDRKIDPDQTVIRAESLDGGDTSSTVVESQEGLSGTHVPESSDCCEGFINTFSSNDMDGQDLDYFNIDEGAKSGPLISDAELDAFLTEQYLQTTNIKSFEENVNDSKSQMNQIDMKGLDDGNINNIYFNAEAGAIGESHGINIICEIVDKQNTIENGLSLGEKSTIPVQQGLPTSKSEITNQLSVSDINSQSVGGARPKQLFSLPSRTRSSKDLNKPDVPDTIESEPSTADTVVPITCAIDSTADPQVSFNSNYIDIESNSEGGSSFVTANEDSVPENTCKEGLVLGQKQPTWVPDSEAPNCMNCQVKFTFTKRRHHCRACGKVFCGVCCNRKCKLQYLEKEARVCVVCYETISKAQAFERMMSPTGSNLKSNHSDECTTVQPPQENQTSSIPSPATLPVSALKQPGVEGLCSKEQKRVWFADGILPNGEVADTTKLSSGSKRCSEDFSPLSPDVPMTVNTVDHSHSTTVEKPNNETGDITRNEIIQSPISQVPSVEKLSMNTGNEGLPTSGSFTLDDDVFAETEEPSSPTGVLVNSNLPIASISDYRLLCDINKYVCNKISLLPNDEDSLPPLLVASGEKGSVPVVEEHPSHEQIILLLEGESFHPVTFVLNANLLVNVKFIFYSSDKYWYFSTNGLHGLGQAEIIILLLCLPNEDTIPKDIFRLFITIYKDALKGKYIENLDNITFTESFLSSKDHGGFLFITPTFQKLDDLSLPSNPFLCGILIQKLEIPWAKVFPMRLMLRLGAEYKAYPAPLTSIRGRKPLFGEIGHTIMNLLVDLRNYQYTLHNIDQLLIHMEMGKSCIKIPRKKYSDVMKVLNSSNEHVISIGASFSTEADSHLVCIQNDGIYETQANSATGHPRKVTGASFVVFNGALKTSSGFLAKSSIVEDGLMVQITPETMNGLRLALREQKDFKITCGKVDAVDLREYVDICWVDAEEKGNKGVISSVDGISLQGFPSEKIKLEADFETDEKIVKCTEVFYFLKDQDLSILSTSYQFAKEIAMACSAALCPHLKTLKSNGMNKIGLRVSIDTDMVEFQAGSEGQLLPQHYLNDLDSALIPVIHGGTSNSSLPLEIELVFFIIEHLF
UniProt P31946: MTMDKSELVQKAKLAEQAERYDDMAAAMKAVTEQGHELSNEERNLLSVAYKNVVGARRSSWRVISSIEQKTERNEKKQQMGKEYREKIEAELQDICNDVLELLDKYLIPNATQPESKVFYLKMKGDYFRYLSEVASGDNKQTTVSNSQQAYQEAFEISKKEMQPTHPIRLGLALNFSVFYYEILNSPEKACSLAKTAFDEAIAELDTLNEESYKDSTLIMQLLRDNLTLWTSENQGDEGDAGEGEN
UniProt Q9NQH7: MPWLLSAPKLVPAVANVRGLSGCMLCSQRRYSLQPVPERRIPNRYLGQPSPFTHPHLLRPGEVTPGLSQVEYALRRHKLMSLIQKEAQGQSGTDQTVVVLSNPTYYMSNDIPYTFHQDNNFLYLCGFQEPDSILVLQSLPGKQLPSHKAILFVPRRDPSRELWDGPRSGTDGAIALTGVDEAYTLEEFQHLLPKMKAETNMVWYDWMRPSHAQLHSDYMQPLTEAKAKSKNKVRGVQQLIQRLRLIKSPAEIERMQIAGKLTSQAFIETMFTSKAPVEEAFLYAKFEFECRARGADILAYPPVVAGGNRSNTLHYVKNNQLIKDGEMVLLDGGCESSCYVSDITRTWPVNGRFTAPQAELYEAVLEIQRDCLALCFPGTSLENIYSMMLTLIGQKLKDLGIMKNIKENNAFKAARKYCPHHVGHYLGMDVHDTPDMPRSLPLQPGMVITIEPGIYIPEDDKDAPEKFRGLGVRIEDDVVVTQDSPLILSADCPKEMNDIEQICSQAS
UniProt Q6PJT7: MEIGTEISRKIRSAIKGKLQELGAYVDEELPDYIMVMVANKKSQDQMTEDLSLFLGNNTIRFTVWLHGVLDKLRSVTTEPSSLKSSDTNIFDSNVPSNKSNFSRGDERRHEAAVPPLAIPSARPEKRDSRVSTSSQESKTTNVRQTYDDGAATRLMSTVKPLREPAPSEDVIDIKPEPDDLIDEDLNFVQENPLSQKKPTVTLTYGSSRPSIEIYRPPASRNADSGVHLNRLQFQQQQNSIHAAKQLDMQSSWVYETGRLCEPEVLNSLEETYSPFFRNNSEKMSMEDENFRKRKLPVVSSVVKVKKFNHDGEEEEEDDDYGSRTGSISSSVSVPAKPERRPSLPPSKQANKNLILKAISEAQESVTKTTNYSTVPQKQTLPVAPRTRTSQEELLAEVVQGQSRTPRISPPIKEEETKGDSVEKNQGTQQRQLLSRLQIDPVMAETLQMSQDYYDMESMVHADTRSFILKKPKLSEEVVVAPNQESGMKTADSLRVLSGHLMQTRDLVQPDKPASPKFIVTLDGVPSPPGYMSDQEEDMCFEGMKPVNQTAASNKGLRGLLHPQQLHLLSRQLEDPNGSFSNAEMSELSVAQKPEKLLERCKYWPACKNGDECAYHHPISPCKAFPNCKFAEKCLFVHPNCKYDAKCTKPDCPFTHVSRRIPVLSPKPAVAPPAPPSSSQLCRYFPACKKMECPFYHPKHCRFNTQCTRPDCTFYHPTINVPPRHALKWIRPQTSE
UniProt Q96TA2: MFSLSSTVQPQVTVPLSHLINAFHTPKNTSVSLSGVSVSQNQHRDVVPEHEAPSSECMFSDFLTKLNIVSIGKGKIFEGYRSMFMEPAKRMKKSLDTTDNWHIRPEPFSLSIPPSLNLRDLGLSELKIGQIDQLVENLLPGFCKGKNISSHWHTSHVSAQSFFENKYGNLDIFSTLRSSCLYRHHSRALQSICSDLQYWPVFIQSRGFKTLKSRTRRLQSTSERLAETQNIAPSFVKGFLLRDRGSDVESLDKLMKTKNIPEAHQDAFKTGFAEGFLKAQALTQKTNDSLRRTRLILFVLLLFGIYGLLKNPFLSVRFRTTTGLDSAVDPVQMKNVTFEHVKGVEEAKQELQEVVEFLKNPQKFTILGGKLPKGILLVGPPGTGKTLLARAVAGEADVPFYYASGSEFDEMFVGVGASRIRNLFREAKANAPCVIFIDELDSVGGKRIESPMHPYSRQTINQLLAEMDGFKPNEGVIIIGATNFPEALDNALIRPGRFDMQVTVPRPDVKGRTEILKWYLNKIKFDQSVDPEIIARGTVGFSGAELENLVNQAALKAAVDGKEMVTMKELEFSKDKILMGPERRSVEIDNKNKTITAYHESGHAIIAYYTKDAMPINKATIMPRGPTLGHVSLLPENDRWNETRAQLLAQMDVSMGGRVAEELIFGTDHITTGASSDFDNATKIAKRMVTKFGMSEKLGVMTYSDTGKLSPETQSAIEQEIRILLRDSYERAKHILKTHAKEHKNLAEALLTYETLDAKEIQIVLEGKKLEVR
UniProt P13010: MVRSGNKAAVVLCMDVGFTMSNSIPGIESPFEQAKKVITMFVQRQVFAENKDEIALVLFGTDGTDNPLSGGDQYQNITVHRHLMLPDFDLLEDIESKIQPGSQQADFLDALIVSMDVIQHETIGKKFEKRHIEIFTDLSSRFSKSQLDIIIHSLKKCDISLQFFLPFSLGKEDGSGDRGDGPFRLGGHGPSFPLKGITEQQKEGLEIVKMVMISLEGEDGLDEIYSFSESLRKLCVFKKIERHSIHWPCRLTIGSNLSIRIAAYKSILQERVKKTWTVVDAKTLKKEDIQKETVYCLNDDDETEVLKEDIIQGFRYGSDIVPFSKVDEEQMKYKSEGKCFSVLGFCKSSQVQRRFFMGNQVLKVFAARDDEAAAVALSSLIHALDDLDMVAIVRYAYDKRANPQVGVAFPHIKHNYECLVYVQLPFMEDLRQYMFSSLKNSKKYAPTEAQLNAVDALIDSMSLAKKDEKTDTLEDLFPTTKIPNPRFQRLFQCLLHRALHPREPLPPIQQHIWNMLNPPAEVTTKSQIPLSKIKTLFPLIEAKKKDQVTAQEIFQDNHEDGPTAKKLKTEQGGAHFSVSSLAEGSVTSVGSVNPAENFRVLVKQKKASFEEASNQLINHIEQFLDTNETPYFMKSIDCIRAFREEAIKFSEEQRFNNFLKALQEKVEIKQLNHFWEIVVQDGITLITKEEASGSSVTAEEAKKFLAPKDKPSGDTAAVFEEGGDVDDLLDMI
UniProt Q96QU8: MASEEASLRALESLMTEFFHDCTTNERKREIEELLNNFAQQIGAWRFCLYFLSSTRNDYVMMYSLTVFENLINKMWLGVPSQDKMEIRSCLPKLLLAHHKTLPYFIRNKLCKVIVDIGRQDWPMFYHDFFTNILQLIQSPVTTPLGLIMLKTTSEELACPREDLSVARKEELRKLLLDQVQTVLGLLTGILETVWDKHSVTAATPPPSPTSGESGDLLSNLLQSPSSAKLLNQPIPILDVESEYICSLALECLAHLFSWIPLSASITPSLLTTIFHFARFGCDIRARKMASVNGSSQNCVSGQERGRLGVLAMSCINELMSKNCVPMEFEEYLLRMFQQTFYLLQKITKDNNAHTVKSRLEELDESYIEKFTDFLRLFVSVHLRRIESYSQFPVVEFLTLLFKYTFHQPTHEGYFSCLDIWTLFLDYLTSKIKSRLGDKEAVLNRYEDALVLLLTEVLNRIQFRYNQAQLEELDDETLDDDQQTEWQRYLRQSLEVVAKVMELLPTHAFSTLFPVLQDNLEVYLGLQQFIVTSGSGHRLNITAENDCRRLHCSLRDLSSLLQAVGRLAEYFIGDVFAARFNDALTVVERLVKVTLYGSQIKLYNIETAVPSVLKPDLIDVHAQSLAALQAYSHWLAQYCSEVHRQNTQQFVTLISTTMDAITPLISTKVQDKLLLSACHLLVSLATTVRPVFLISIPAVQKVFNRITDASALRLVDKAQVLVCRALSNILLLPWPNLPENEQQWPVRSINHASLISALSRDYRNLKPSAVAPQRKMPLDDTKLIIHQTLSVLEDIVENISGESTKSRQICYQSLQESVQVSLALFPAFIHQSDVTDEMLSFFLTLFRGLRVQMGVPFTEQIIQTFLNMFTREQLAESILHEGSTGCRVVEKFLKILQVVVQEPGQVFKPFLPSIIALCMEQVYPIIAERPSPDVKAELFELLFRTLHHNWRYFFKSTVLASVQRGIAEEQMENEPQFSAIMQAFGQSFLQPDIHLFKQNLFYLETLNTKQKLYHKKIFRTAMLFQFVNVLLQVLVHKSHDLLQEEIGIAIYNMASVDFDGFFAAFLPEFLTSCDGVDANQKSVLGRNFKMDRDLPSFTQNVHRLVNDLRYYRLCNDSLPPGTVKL

Legend:
Experiment in all cases: log2 fold change, soluble protein after heating vs DMSO (PISA); higher = thermal stabilisation; K562 lysate, 10 uM; active = over 0.2 and 3.5 SD of the protein, either way, in both replicates (recomputed)
[1] = compound: C#Cc1cccc(Nc2ncnc3cc(OCCOC)c(OCCOC)cc23)c1 [erlotinib]
How it was run: (§1)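 Quantification was by TMTpro 16plex LC-MS/MS with equalised channel sums, applied to the supernatant after 21,000xg for 90 min. Samples were crude K562 extract at 1 mg/mL protein in PBS pH 7.4 with 1 mM MgCl2, treated with 10 μM compound for 30 min, heated for 3 min across 48°C-58°C, pooled and brought to 0.5% NP-40 at 4°C. Values are log-two fold changes in thermal stability relative to solvent controls, from duplicates.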

[2] = compound: C/C(=N\NC(=O)C1=CC(=CC=C1)S(=O)(=O)N2CCOCC2)/C3=C(C=CC(=C3)Cl)O
How it was run: as §1

[3] = compound: C1=CC(=CC=C1C2=NC3=C(N2)C=C(C=C3)C(=O)N)OC4=CC=C(C=C4)Cl
How it was run: as §1

[4] = compound: C1=CC2=C(C=CC(=C2)/C=C\3/C(=O)NC(=NCC4=CC=CS4)S3)N=C1
How it was run: as §1

[5] = compound: C1=CC2=NC=CN=C2C=C1/C=C/3\C(=O)NC(=O)S3
How it was run: as §1

[6] = compound: C1=CC=C(C=C1)C2=NC(=C(N2)C3=CC=NC=C3)C4=CC(=C(C=C4)Cl)O
How it was run: as §1

[7] = compound: C1=CC=C2C(=C1)C3=NNC4=CC=CC(=C43)C2=O
How it was run: as §1

[8] = compound: C1CCN(C1)C(=O)NC2=CC=CC(=C2)NC3=NC=C(C(=N3)NCCC4=CN=CN4)Br
How it was run: as §1

[9] = compound: C1CN(CCC1(CC2=CC=C(C=C2)Cl)N)C3=NC=NC4=C3C=CN4
How it was run: as §1

[10] = compound: C1COCCN1CCN2C3=CC=CC=C3N=C2NC(=O)C4=CC(=CC=C4)[N+](=O)[O-] [IRAK-1-4 Inhibitor I]
How it was run: as §1

[11] = compound: C=CC(=O)N1CCC[C@@H](n2nc(-c3ccc(Oc4ccccc4)cc3)c3c(N)ncnc32)C1 [ibrutinib]
How it was run: as §1

[12] = compound: CC(=O)c1cnc2ccc(-c3cc(Cl)c(O)c(Cl)c3)nc2c1N[C@H]1CC[C@H](CN(C)C)CC1
How it was run: as §1

[13] = compound: CC(C)(C)Cn1c(N)nc2ccc(-c3[nH]c(C(C)(C)C)nc3-c3ccc(F)cc3)nc21 [ralimetinib]
How it was run: as §1

[14] = compound: CC(C)(O)CC(=O)NCCn1ccc2ncnc(Nc3ccc(Oc4cccc(C(F)(F)F)c4)c(Cl)c3)c21
How it was run: as §1

[15] = compound: CC(C)C1=C2N=C(C=C(N2N=C1)NCC3=CC=CC=C3)NCCCCCCN
How it was run: as §1

[16] = compound: CC1=C(C(CC(=O)N1)C2=CC=C(C=C2)C(F)(F)F)C(=O)NC3=C(C=C4C(=C3)C=NN4)F
How it was run: as §1

[17] = compound: CC1=C(C2=C(C=C1)C(=O)C3=CC=CC=C3N2CCCN)C
How it was run: as §1

[18] = compound: CC1=C(C=C(C=C1)NC(=O)C2=CC(=CC=C2)C(C)(C)C#N)NC3=CC4=C(C=C3)N=CN(C4=O)C
How it was run: as §1

[19] = compound: CC1=C(C=C(C=C1)NC(=O)C2=CC(=CC=C2)N(C)C)NC(=O)C3=CC=C(C=C3)O
How it was run: as §1

[20] = compound: CC1=CC=C(C=C1)SC2=C3C=C(SC3=CN=C2)C(=O)N
How it was run: as §1

Measured: log2 fold change

ZBED1 (UniProt O96006)
inactive: [1] 0 | [2] 0.037 | [3] -0.027 | [4] -0.035 | [5] -0.061 | [6] 0.02 | [7] 0.011 | [8] -0.084 | [9] 0.075 | [10] -0.01 | [11] 0.104 | [12] 0.004 | [13] -0.012 | [14] 0.017 | [15] -0.032 | [16] 0.006 | [17] 0.046 | [18] -0.02 | [19] 0.017 | [20] -0.077

YEATS4 (UniProt O95619)
inactive: [1] -0.017 | [2] -0.018 | [3] -0.018 | [4] 0.045 | [5] -0.079 | [6] -0.013 | [7] -0.027 | [8] 0.007 | [9] 0.034 | [10] 0.002 | [11] 0.02 | [12] 0.016 | [13] 0.003 | [14] 0.009 | [15] 0.001 | [16] 0.01 | [17] -0.004 | [18] 0.041 | [19] -0.035 | [20] -0.039

ZBTB21 (UniProt Q9ULJ3)
inactive: [1] -0.073 | [2] 0.095 | [3] -0.127 | [4] 0.045 | [5] -0.104 | [6] 0.038 | [7] 0.041 | [8] -0.032 | [9] 0.098 | [10] -0.014 | [11] 0.079 | [12] 0.078 | [13] 0.024 | [14] -0.046 | [15] -0.07 | [16] 0.014 | [17] -0.076 | [18] -0.049 | [19] 0.022 | [20] -0.036

YWHAZ (UniProt P63104)
inactive: [1] -0.025 | [2] -0.028 | [3] 0.002 | [4] -0.014 | [5] -0.013 | [6] -0.014 | [7] 0.039 | [8] 0.011 | [9] -0.03 | [10] -0.025 | [11] 0.002 | [12] -0.013 | [13] -0.024 | [14] 0.031 | [15] -0.014 | [16] -0.023 | [17] 0.03 | [18] 0.042 | [19] -0.022 | [20] -0.025

YDJC (UniProt A8MPS7)
inactive: [1] -0.083 | [2] 0.036 | [3] -0.011 | [4] -0.012 | [5] -0.01 | [6] 0.029 | [7] -0.065 | [8] -0.034 | [9] 0.029 | [10] -0.023 | [11] 0.024 | [12] 0.023 | [13] -0.015 | [14] -0.064 | [15] -0.028 | [16] 0.052 | [17] -0.034 | [18] 0.011 | [19] 0.022 | [20] 0.021

Quoted at random: two entries already listed
ZBED1 (UniProt O96006)
inactive: [1] 0 | [2] 0.037 | [3] -0.027 | [4] -0.035 | [5] -0.061 | [6] 0.02 | [7] 0.011 | [8] -0.084 | [9] 0.075 | [10] -0.01 | [11] 0.104 | [12] 0.004 | [13] -0.012 | [14] 0.017 | [15] -0.032 | [16] 0.006 | [17] 0.046 | [18] -0.02 | [19] 0.017 | [20] -0.077

YEATS4 (UniProt O95619)
inactive: [1] -0.017 | [2] -0.018 | [3] -0.018 | [4] 0.045 | [5] -0.079 | [6] -0.013 | [7] -0.027 | [8] 0.007 | [9] 0.034 | [10] 0.002 | [11] 0.02 | [12] 0.016 | [13] 0.003 | [14] 0.009 | [15] 0.001 | [16] 0.01 | [17] -0.004 | [18] 0.041 | [19] -0.035 | [20] -0.039

(continued)

YTHDC2 (UniProt Q9H6S0)
inactive: [1] -0.008 | [2] 0.065 | [3] 0.012 | [4] 0.027 | [5] 0.02 | [6] -0.001 | [7] 0.074 | [8] -0.019 | [9] 0.029 | [10] 0.002 | [11] 0.003 | [12] 0.009 | [13] 0.061 | [14] 0.021 | [15] 0.013 | [16] 0.003 | [17] -0.023 | [18] -0.003 | [19] 0.019 | [20] -0.018

ZFYVE16 (UniProt Q7Z3T8)
inactive: [1] 0.022 | [2] -0.022 | [3] 0.022 | [4] -0.003 | [5] -0.012 | [6] 0.004 | [7] -0.035 | [8] -0.022 | [9] 0.02 | [10] -0.003 | [11] 0.046 | [12] 0.026 | [13] 0.029 | [14] -0.018 | [15] -0.022 | [16] -0.026 | [17] 0.003 | [18] 0.011 | [19] 0.028 | [20] -0.007

YWHAB (UniProt P31946)
inactive: [1] -0.029 | [2] 0.044 | [3] 0.003 | [4] -0.072 | [5] -0.018 | [6] -0.014 | [7] -0.015 | [8] 0.001 | [9] -0.009 | [10] -0.005 | [11] 0.022 | [12] 0.011 | [13] 0.007 | [14] 0.039 | [15] 0.015 | [16] -0.023 | [17] 0.002 | [18] -0.038 | [19] 0.029 | [20] 0.01

YJU2 (UniProt Q9BW85)
inactive: [1] 0.004 | [2] 0 | [3] 0.056 | [4] 0.021 | [5] -0.039 | [6] 0.037 | [7] -0.029 | [8] -0.016 | [9] 0.023 | [10] -0.038 | [11] 0.062 | [12] 0 | [13] -0.003 | [14] -0.014 | [15] -0.013 | [16] 0.028 | [17] 0.026 | [18] -0.039 | [19] 0 | [20] -0.041

XPNPEP3 (UniProt Q9NQH7)
inactive: [1] 0.011 | [2] -0.016 | [3] 0.006 | [4] 0.018 | [5] 0.019 | [6] -0.002 | [7] 0.017 | [8] -0.061 | [9] 0.058 | [10] -0.001 | [11] 0.025 | [12] 0.019 | [13] 0 | [14] -0.014 | [15] 0.007 | [16] 0.039 | [17] 0 | [18] 0.04 | [19] -0.013 | [20] 0.014

ZC3H18 (UniProt E7ERS3)
inactive: [1] -0.024 | [2] -0.038 | [3] 0.027 | [4] 0.001 | [5] -0.024 | [6] -0.003 | [7] 0.004 | [8] 0 | [9] -0.014 | [10] 0.007 | [11] 0.008 | [12] -0.02 | [13] -0.025 | [14] -0.058 | [15] 0.01 | [16] -0.008 | [17] -0.022 | [18] 0.055 | [19] 0.002 | [20] 0.023

ZC3H14 (UniProt Q6PJT7)
inactive: [1] -0.008 | [2] -0.037 | [3] 0 | [4] 0.044 | [5] -0.002 | [6] 0.01 | [7] 0.014 | [8] 0.02 | [9] 0.017 | [10] 0.002 | [11] -0.011 | [12] -0.019 | [13] -0.005 | [14] -0.036 | [15] 0.002 | [16] 0.02 | [17] 0.019 | [18] 0.01 | [19] 0.025 | [20] -0.023

YME1L1 (UniProt Q96TA2)
inactive: [1] 0.018 | [2] -0.136 | [3] -0.029 | [4] 0.026 | [5] 0.053 | [6] 0 | [7] 0.011 | [8] -0.006 | [9] 0.041 | [10] 0.033 | [11] -0.04 | [12] -0.008 | [13] -0.006 | [14] -0.043 | [15] 0 | [16] -0.04 | [17] 0.003 | [18] 0.005 | [19] 0.054 | [20] -0.087

ZC3H15 (UniProt Q8WU90)
inactive: [1] -0.014 | [2] -0.022 | [3] 0.02 | [4] 0.02 | [5] -0.028 | [6] -0.004 | [7] 0.021 | [8] 0.016 | [9] 0.034 | [10] 0.005 | [11] -0.006 | [12] 0.004 | [13] 0.015 | [14] -0.021 | [15] 0.017 | [16] -0.01 | [17] -0.003 | [18] 0.043 | [19] 0 | [20] -0.019

XRCC5 (UniProt P13010)
inactive: [1] 0.018 | [2] -0.009 | [3] -0.034 | [4] 0.004 | [5] 0.017 | [6] 0.013 | [7] -0.025 | [8] -0.002 | [9] 0.006 | [10] -0.01 | [11] -0.011 | [12] -0.002 | [13] 0.001 | [14] 0.004 | [15] 0.008 | [16] -0.019 | [17] 0.062 | [18] -0.026 | [19] 0.004 | [20] 0.013

XPO6 (UniProt Q96QU8)
inactive: [1] 0.091 | [2] -0.024 | [3] -0.028 | [4] 0.031 | [5] -0.012 | [6] -0.003 | [7] -0.072 | [8] -0.007 | [9] -0.028 | [10] 0.003 | [11] -0.013 | [12] 0.018 | [13] 0.006 | [14] -0.006 | [15] -0.033 | [16] -0.003 | [17] -0.024 | [18] 0.028 | [19] 0.062 | [20] -0.006
